Assay results reported in paper PMC11506777.
Results are given in words; binding and its absence hold for the method and conditions named. In cells and extracts the contact can be indirect. A yes stands for co-enrichment or nearness to the bait. Other partners may have been found. Tags and fused reporters may be left off the sequences shown. Values belong to the molecule of their own block, whether it stands above or below them.

Sequences of proteins named here, by UniProt entry; tags and fusion partners are left off. Residues count along the entry.
UniProt P34932: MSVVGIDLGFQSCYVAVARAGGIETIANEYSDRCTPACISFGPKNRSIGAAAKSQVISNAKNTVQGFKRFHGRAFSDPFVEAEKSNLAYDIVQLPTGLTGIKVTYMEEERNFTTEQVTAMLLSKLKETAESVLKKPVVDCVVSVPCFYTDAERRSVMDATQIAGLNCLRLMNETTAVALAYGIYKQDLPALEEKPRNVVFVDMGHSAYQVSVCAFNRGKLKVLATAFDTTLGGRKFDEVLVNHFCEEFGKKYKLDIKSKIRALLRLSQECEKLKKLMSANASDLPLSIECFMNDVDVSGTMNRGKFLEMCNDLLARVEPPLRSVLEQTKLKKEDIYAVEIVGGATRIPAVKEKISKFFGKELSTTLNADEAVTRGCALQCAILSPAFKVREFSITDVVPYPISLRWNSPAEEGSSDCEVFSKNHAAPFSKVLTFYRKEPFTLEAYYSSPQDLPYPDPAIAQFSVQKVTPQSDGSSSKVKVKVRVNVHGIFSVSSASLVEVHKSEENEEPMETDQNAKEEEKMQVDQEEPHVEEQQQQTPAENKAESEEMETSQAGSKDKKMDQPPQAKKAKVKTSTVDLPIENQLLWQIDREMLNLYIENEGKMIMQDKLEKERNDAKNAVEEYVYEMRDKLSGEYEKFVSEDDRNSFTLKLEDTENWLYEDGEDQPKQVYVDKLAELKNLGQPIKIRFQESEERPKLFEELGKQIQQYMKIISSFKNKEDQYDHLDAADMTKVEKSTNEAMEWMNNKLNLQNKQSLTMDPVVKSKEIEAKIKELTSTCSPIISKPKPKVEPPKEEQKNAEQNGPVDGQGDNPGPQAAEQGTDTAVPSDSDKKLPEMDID
UniProt P11021, residues 19-654: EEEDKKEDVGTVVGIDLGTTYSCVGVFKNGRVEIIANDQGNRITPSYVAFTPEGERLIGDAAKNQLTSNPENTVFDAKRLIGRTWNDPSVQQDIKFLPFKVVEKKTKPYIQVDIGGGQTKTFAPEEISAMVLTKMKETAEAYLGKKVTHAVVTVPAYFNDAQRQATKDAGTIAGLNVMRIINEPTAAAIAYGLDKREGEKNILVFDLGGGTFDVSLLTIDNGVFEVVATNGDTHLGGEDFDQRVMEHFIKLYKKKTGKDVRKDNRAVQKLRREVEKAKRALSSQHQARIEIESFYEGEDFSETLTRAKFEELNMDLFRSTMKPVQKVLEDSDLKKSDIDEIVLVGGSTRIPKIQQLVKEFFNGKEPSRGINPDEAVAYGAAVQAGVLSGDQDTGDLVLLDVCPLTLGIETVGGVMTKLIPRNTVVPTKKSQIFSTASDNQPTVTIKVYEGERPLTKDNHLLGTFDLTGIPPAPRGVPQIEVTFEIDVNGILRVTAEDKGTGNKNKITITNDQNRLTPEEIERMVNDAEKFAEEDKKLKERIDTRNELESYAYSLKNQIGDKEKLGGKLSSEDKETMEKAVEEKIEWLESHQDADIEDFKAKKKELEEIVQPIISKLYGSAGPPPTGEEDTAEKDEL
UniProt P07237, residues 18-508: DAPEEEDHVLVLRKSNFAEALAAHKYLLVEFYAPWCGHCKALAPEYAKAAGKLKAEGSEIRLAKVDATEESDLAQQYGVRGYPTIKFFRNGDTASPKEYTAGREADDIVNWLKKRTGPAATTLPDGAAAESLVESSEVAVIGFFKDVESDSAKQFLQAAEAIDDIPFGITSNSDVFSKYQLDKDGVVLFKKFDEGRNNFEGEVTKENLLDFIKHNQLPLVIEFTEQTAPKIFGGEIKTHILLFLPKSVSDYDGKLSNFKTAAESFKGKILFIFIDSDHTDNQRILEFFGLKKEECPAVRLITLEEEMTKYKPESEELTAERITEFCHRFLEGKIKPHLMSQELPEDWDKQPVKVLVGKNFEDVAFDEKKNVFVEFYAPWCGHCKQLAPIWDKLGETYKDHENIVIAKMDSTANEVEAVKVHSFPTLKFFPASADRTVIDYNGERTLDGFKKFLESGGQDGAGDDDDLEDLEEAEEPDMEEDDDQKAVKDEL
UniProt P30101, residues 25-505: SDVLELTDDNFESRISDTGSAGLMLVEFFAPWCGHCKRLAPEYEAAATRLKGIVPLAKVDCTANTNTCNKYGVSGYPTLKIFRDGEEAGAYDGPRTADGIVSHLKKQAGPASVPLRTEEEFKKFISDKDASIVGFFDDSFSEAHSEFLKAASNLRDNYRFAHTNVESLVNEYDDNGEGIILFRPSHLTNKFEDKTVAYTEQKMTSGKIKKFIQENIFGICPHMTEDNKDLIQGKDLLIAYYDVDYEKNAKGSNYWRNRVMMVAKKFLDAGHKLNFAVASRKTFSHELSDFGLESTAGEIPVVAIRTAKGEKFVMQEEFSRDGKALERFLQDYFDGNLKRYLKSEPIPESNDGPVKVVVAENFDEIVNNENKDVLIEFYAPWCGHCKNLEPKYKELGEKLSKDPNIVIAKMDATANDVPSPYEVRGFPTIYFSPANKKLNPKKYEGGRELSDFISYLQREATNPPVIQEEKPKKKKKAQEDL

Target: T1, Klotho-EGFP N614Q (mouse) (UniProt O35082)
T1 sequence: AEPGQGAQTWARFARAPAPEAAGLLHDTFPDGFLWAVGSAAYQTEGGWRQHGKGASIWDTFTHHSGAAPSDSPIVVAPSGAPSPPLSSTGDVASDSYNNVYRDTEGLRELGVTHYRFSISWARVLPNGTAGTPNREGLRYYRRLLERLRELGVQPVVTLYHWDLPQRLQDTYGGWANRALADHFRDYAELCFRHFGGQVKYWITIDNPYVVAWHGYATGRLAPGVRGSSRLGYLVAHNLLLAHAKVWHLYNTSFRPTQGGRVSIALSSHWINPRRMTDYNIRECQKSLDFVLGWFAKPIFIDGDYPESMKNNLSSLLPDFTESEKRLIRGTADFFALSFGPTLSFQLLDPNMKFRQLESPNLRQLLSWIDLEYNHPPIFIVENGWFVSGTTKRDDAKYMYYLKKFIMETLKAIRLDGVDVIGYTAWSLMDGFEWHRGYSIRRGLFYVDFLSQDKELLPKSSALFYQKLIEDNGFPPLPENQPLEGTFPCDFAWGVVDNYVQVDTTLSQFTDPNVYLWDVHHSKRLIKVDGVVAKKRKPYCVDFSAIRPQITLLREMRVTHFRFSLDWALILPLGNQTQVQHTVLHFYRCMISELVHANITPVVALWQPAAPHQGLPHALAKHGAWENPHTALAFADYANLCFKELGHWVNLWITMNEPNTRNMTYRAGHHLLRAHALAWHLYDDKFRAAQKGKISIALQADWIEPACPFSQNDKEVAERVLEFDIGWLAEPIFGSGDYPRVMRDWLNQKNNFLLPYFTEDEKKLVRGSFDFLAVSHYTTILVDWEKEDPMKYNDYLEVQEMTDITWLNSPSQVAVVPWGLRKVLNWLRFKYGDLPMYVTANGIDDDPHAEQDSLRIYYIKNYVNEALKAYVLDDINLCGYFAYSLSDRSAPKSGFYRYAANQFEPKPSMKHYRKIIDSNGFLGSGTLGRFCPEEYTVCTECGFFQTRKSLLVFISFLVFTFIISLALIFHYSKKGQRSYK
Experiment: affinity purification with mass spectrometry; GFP-TRAP agarose immunoprecipitation from CHAPSO lysates (150 mM citrate buffer pH 6.4, 2% CHAPSO) of untreated HEK293T cells stably expressing Klotho-EGFP variants or GFP; elution with 200 mM glycine pH 2.5; DIA LC-MS; six biological replicates

Molecule: CALR (from UniProt P27797 18-417)
- binding: binds

Molecule: HSPA4 (from UniProt P34932 1-840)
- binding: binds

B1: MOGS (mannosyl-oligosaccharide glucosidase) (enzyme, UniProt Q13724 1-837)
chain: MARGERRRRAVPAEGVRTAERAARGGPGRRDGRGGGPRSTAGGVALAVVVLSLALGMSGRWVLAWYRARRAVTLHSAPPVLPADSSSPAVAPDLFWGTYRPHVYFGMKTRSPKPLLTGLMWAQQGTTPGTPKLRHTCEQGDGVGPYGWEFHDGLSFGRQHIQDGALRLTTEFVKRPGGQHGGDWSWRVTVEPQDSGTSALPLVSLFFYVVTDGKEVLLPEVGAKGQLKFISGHTSELGDFRFTLLPPTSPGDTAPKYGSYNVFWTSNPGLPLLTEMVKSRLNSWFQHRPPGAPPERYLGLPGSLKWEDRGPSGQGQGQFLIQQVTLKIPISIEFVFESGSAQAGGNQALPRLAGSLLTQALESHAEGFRERFEKTFQLKEKGLSSGEQVLGQAALSGLLGGIGYFYGQGLVLPDIGVEGSEQKVDPALFPPVPLFTAVPSRSFFPRGFLWDEGFHQLVVQRWDPSLTREALGHWLGLLNADGWIGREQILGDEARARVPPEFLVQRAVHANPPTLLLPVAHMLEVGDPDDLAFLRKALPRLHAWFSWLHQSQAGPLPLSYRWRGRDPALPTLLNPKTLPSGLDDYPRASHPSVTERHLDLRCWVALGARVLTRLAEHLGEAEVAAELGPLAASLEAAESLDELHWAPELGVFADFGNHTKAVQLKPRPPQGLVRVVGRPQPQLQYVDALGYVSLFPLLLRLLDPTSSRLGPLLDILADSRHLWSPFGLRSLAASSSFYGQRNSEHDPPYWRGAVWLNVNYLALGALHHYGHLEGPHQARAAKLHGELRANVVGNVWRQYQATGFLWEQYSDRDGRGMGCRPFHGWTSLVLLAMAEDY
- binding: binds

B2: PDIA4 (protein, UniProt P13667 21-645)
chain: VAGAEGPDEDSSNRENAIEDEEEEEEEDDDEEEDDLEVKEENGVLVLNDANFDNFVADKDTVLLEFYAPWCGHCKQFAPEYEKIANILKDKDPPIPVAKIDATSASVLASRFDVSGYPTIKILKKGQAVDYEGSRTQEEIVAKVREVSQPDWTPPPEVTLVLTKENFDEVVNDADIILVEFYAPWCGHCKKLAPEYEKAAKELSKRSPPIPLAKVDATAETDLAKRFDVSGYPTLKIFRKGRPYDYNGPREKYGIVDYMIEQSGPPSKEILTLKQVQEFLKDGDDVIIIGVFKGESDPAYQQYQDAANNLREDYKFHHTFSTEIAKFLKVSQGQLVVMQPEKFQSKYEPRSHMMDVQGSTQDSAIKDFVLKYALPLVGHRKVSNDAKRYTRRPLVVVYYSVDFSFDYRAATQFWRSKVLEVAKDFPEYTFAIADEEDYAGEVKDLGLSESGEDVNAAILDESGKKFAMEPEEFDSDTLREFVTAFKKGKLKPVIKSQPVPKNNKGPVKVVVGKTFDSIVMDPKKDVLIEFYAPWCGHCKQLEPVYNSLAKKYKGQKGLVIAKMDATANDVPSDRYKVEGFPTIYFAPSGDKKNPVKFEGGDRDLEHLSKFIEEHATKLSRTKEEL
- binding: binds

More lines, now with the values ahead:

- binding: binds
Molecule: HSPA5 (BiP) (from UniProt P11021 19-654)

- binding: binds
Molecule: P4HB (from UniProt P07237 18-508)

- binding: binds
Molecule: PDIA3 (from UniProt P30101 25-505)
